In patent publication CN107522783A:
No constants are given. Whether binding was seen depends on the method and setting. Some binding calls cover weakened binding; strength is not graded here.

Biological target: Recombinant marmoset IL-17A (Sino Biological, 90287-CNAE-100) (marmoset)
Assay: indirect ELISA, species cross-reactivity

B1: 嵌合抗体 (antibody, V domains shown)
VH: QVQLQQSGPEVVRPGVSVKISCKGSGYTFTDYAMHWVKQSHAKSLEWIGVIGPYNDNTNYNQKFKGKATMTVDKSSSTAYMEIARLTSEDSAIYYCARGERYFDYWGQGTTLTVSS
VL: DIQMTQSSSYLSVSLGGRVTITCRASDHINNWLAWYQQKPGNAPRLLIYGATSLETGVPSRFSGSGSGKDYTLSITSLQTEDVATYYCQQYWTIPLTFGAGTKLELK
  binding: binds
